This is an account of results in US20250163183A1.

The chains behind the UniProt entries cited, without tags or fusion partners. Where a name states a change or a piece, a line headed by the entry shows the natural chain unless it says otherwise.
UniProt P04070: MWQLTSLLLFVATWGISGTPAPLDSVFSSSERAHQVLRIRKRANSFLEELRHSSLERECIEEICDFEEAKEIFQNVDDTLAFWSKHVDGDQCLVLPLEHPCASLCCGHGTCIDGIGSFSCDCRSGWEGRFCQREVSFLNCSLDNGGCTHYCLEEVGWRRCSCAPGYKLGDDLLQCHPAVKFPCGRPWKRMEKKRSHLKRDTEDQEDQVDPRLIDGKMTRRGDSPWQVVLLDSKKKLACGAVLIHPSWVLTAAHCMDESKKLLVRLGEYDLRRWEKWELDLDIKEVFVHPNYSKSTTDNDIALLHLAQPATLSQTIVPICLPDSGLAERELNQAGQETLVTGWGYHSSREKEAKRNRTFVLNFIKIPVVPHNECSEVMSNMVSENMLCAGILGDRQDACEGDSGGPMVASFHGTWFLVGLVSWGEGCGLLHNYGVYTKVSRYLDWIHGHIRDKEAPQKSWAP

For assay [1], the target named is human activated protein C (APC) (human) (UniProt P04070). As to the kind of experiment: ELISA. For orientation: An ELISA detects its analyte on a solid surface through an enzyme-linked reagent.
For assay [2] the target is unchanged. Briefly: ELISA screen, APC-coated wells, OD450, n=2 [Continued].

These are yes or no findings as the source states them, for the method shown. Some binding calls cover weakened binding; strength is not graded here.

B1: SR16983-R2-P2-D05 (VHH)
VHH: QVQLVESGGGLVQPGGSLTLSCAASGTIESINDMGWYRQAPGKQRELVAAITSGGSTNYADSVKGRFTISRDNAKNTVYLQMNSLKPEDTAVYYCNAEVKRHYYYDSAGHRYWGQGTQVTVSS
Turning to B1, the binding entry in assay [1] and in assay [2] was “binds” in each case.

B2: SR16983-R2-P2-D08 (VHH)
VHH: QLQLVESGGGLVQAGDSLRLSCALSGLAASTYAMAWFRQAPGKEREFVSVIDWKGDSTTANSVKGRFTISRDHGKNTVYLQMNSLQPEDTALYYCAARGSPGYVAKLYAHWGRGTQVTVSS
Consider B2, for which the binding result in assay [1] and in assay [2] was “binds” throughout.

B3: SR16983-R3P2B6 (VHH)
VHH: QLQLVESGGGLVQAGGSLRLACAASGFSFDDYAIGWFRQAPGKEREGVSCITSDGSTYYADSVKGRFTISSDNAKNTVYLQMNILKPEDTAVYYCARGGLLLPKPELFEYWGQGTQVTVSS
Consider B3, for which the binding entry in assay [1] and in assay [2] was “binds” each time.

B4: SR16983-R2-P4-H08 (VHH)
VHH: QLQLVESGGGLMQAGGSLRLSCAASGTTSSLNLMGWYRQAPGKKRESVAHMTSDGRTDYTDSVKGRFTISRDNSKNTVYLQMNNLKPEDTAVYYCYANPFLGSWSNYWGQGTQVTVSS
With B4, the binding result in assay [1] and in assay [2] was “binds” each time.

B5: SR16983-R3-P2-B05 (VHH)
VHH: QLQLVESGGGLVQAGGSLRLSCAASGTTSSLNLMGWYRQAPGKKRESVAHMTSDGRTDYVDSVKGRFTISRDNSKNTVYLQMNNLKPEDTAVYICYANPFLGSWSNYWGQGTQVTVSS
Consider B5, for which the binding entry in assay [1] and in assay [2] was “binds” each time.

B6: SR16983-R2-P2-E10 (VHH)
VHH: QLQLVESGGGLVQPGGSLRLSCVLSGSTFGRNVITWYRQPPGKQREFIAMITTSGSTRYADSVKGRFTMSRDTAKNTAFLQMSNLKLEDTAVYYCWTAIAGQGEYWGQGTQVTVSS
Regarding B6, the binding entry in assay [1] and in assay [2] was “binds” each time.

B7: SR16983-R3-P3-E02 (VHH)
VHH: QLQLVESGGGLVQAGGSLRLSCVLSGNTFGRNVITWYRQPPGKQREFIAMITSSGSTRYADSVKGRFTMSRDTAKNTAFLQMSSLKVEDTAVYYCWTAIAGQGEYWGQGTQVTVSS
As for B7, the binding result in assay [1] and in assay [2] was “binds” each time.

B8: SR16983-R4-P1-C12 (VHH)
VHH: QLQLVESGGGLVQAGGSLRLSCAASGSTFSINVFAWYRQGSGEQRELVAFIGRSGTARYGDSVKGRFSISRDNAKKTVYLQMDSLRPEDTAVYYCNLGDYWGQGTQVTVSS
In the case of B8, the binding result in assay [1] and in assay [2] was “binds” throughout.

B9: SR16983-R3-P3-F04 (VHH)
VHH: QLQLVESGGGLVQAGGSLRLSCAASGRTVGSYAMGWFRQAPGKEREFLAASSRSTGNTVYADSVKGRFTISRDDAKNTLYLQMNSLKPEDTAVYYCAARASINYNYANWPYWGQGTQVTVSS
For the molecule B9, the binding result in assay [1] and in assay [2] was “binds” throughout.

B10: SR16983-R2-P3-E06 (VHH)
VHH: QLQLVESGGGLVQAGGSLRLSCVASGRTVGSYAVAWFRQAPGKERELLAASSRSTGNTVYADSVKGRFTIARDDAKNTLYLQMNSLKPEDTAVYYCAARASINYNYANWPYWGQGTQVTVSS
For B10, the binding entry in assay [1] and in assay [2] was “binds” in each case.

B11: SR16983-R2-P4-F03 (VHH)
VHH: QVQLVESGGGLVQAGGSLRLSCAASGRTFGSYVMGWFRQAPGKEREFLAAFSRSTGSTVYADSVKGRFTISKDDAKNTLYLQMNSLKPEDTAVYYCATRASINYNYANWPYWGQGTQVTVSS
As to B11, the binding result in assay [1] and in assay [2] was “binds” in each case.

B12: SR16983-R3-P3-C10 (VHH)
VHH: QLQLVESGGGLVQAGGSLRLSCAASGRTVGSYAMGWFRQAPGKEREFLAAFSRSTGPTVYADSVKGRFTISRDDAKNTLYLQMNSLKPEDTAVYYCAARASINYNYANWPYWGQGTQVTVSS
For B12, the binding entry in assay [1] and in assay [2] was “binds” throughout.

B13: SR16983-R2-P3-E04 (VHH)
VHH: QLQLVESGGGLVQAGGSLRLSCAASGRTVGSYVMGWFRQAPGKEREFLAASSRSTGNTVYADSVKGRFSISRDDAKNTLYLQMNSLKPEDTAVYYCATRASINYNYANWPYWGQGTQVTVSS
As for B13, the binding entry in assay [1] and in assay [2] was “binds” throughout.

B14: SR16983-R2-P4-E08 (VHH)
VHH: QLQLVESGGGLVQAGGSLTLSCAASGFTLDDYAIGWFRQAPGKEREGVSCIATSDGSTYYADSVKGRFTISSDNAKNTVYLQMNSLKPEDTAVYYCARGGLLLPKPELFDFRGQGTQVTVSP
Take B14: the binding entry in assay [1] and in assay [2] was “binds” throughout.

B15: SR16983-R2-P4-G08 (VHH)
VHH: EVQLVESGGGLVQAGGSLRLSCAASGLTSSTYAMAWFRQAPGKEREFVSVIDWRGSTTYTNSVKGRFTISRDNGKNTVYLQMNSLQPEDTALYYCAARASPGYVGSLYPYWGRGTQVTVSS
Take B15: the binding entry in assay [1] and in assay [2] was “binds” each time.

B16: SR16983-R4-P1-C10 (VHH)
VHH: QVQLVESGGGLVQAGGSLRLSCVAYGSTFSINVFAWYRQAPGEQRELGELVAFIGRSGTTKYGDSVKGRFTISRDNAKNTVYLQMDSLRPEDTAVYYCNLGDYWGQGTQVTVSS
Take B16: the binding result in assay [1] and in assay [2] was “binds” in each case.

B17: SR16983-R2P1C12 (VHH)
VHH: QVQLVESGGGLVQPGGSLRLSCAASGFTFSMKWMYWVRQGPGKGLEWVSTIDTSGSSTYYADSVKGRFTISRDNSKNTVYLQMNSLESADTAVYYCARSAGGLFRGRGTQVTVSS
Regarding B17, the binding entry in assay [1] and in assay [2] was “binds” throughout.

B18: SR16983-R3-P5-D01 (VHH)
VHH: QLQLVESGGGLVQAGGSLRLSCAASGTTFDMNSIGWYRQAPGKQRELVATISIGGSTNYADSVKGRFTISRGNAKNTVYMQMNSLKPEDTAVYYCNAERIWPNRRTFWGQGTQVTVSS
As for B18, the binding entry in assay [1] and in assay [2] was “binds” each time.

B19: SR16983-R2-P3-F07 (VHH)
VHH: QLQLVESGGGLVQAGGSLRLSCAASGTTFDMNSMGWYRQAPGFKRDLVATISIGGDTNYTDSVKGRFTISRDNAKNTVYMQMNSLKPEDTAVYYCNAERIWPNRRSFWGQGTQVTVSS
As to B19, the binding entry in assay [1] and in assay [2] was “binds” throughout.

B20: SR16983-R3P2D01 (VHH)
VHH: QLQLVESGGGLVQAGGSLRLSCAASGTTSSFVYMGWYRQAPGNQRDLVARISSDGSTNYADSVKGRFTISGDNAKNTVYLQMNSLKPEDTARYYCFYNGHVNKWGQGTQVTVSS
As for B20, the binding result in assay [1] and in assay [2] was “binds” each time.

B21: SR16983-R3-P4-A07 (VHH)
VHH: QVQLVESGGGLVQAGGSLRLSCAASGRTFVGSYVMGWFRQAPGKEREFVAASSRSTGNTVYLDSVKGRFTVSRDDAKNTLYLQMNSLKPEDTAVYYCATRASINYNYAAWPYWGQGTQVTVSS
For B21, the binding entry in assay [1] and in assay [2] was “binds” throughout.

B22: SR16983-R2-P4-F01 (VHH)
VHH: QLQLVESGGGLVQAGGSLRLSCAASGRTFVGSYVMGWFRQAPGKAREFVAASSRSTGNTVYLDAVKGRFTVSRDDAKNTLYLQMSSLKPEDTAVYYCATRASINYNYANWPYWGQGTQVTVSS
Regarding B22, the binding result in assay [1] and in assay [2] was “binds” in each case.

B23: SR16983-R2-P4-C02 (VHH)
VHH: QVQLVESGGGLVQAGGSLRLSCTTSGSTFSITAGGWYRQAPGKQRELVADIANDGSTTSADSVKGRFTISRDNAKNTVELQMSSLKLEDTAVYYCFVVGKSDSMPRARAYWGQGTQVTVSS
B23: the binding entry in assay [1] and in assay [2] was “binds” in each case.

B24: SR16983-R3P2H09 (VHH)
VHH: EVQLVESGGGLVQAGGSLRVSCTTSGSTFSITAGGWYRQTPGKERELVADIANDGSTTYANSVKGRFTISRDNAKNTVELQMSSLKLEDTAAYRCFVVGISDSMPRPRAYWGQGTQVTVSS
On to B24, for which the binding result in assay [1] and in assay [2] was “binds” throughout.

B25: SR16983-R3P2F4 (VHH)
VHH: QLQLVESGGGLVQAGGSLRLSCAASGRIFGTYVMGWFRQAPGKEREFVAAVSRSTGSTYADSVKGRFTISRDDAKNMLYLQMNNLRPEDTAIYYCATRASINYNYANWPYWGQGTQVTVSS
With B25, the binding result in assay [1] and in assay [2] was “binds” throughout.

B26: SR16983-R3P2D02 (VHH)
VHH: QLQLVESGGGLVQPGGSLRLSCAASGFTLDGYAIGWFRQAPGKEREGVSSIATSDGSTYYADSVKGRFTISGDDAKNTVYLHMNSLKPEDTAVYYCARGGSLVLRPKYYDYWGQGTQVTVSS
As for B26, the binding entry in assay [1] and in assay [2] was “binds” each time.

B27: SR16983-R3P2H01 (VHH)
VHH: QLQLVQSGGGLVQAGGSLRLSCTASGSTVRVTAGGWYRQTPGNERELVADIDNGGSTTYADSVKGRFTISRDNAKNAVDLQMNSLKPEDTAVYRCFVIAIPDSAPRPRAYWGQGTEVTVSS
For B27, the binding result in assay [1] and in assay [2] was “binds” each time.

B28: SR16983-R3-P4-G09 (VHH)
VHH: QLQLVESGGGLVQAGGSLRLSCAASGSTVRVTAGGWYRQTPGNERELVADIDNGGSTTYADSVKGRFTISRDNAKNAVDLQMNSLKPEDTAVYRCFVIAIPDSAPRPRSYWGQGTEVTVSS
On to B28, for which the binding entry in assay [1] and in assay [2] was “binds” in each case.
